Earlier results in US20250197870A1, “RECOMBINANT E. COLI STRAIN PRODUCING 1,3-BUTANEDIOL FROM GLUCOSE AND METHOD FOR PRODUCING 1,3-BUTANEDIOL USING SAME” (ActivON Co.,Ltd., priority 2022, published 2025).
At least one read-out could not be matched to a standard name with certainty.

B1: YgjB (Ahr): E. coli-derived alcohol dehydrogenase, 3-hydroxybutyraldehyde reductase, SEQ ID NO: 35 gene product (protein, listed as Escherichia coli)
chain: MSMIKSYAAKEAGGELEVYEYDPGELRPQDVEVQVDYCGICHSDLSMIDNEWGFSQYPLVAGHEVIGRVVALGSAAQDKGLQVGQRVGIGWTARSCGHCDACISGNQINCEQGAVPTIMNRGGFAEKLRADWQWVIPLPENIDIESAGPLLCGGITVFKPLLMHHITATSRVGVIGIGGLGHIAIKLLHAMGCEVTAFSSNPAKEQEVLAMGADKVVNSRDPQALKALAGQFDLIINTVNVSLDWQPYFEALTYGGNFHTVGAVLTPLSVPAFTLIAGDRSVSGSATGTPYELRKLMRFAARSKVAPTTELFPMSKINDAIQHVRDGKARYRVVLKADF
B2: YahK: E. coli-derived alcohol dehydrogenase, 3-hydroxybutyraldehyde reductase, SEQ ID NO: 36 gene product (protein, listed as Escherichia coli)
chain: MKIKAVGAYSAKQPLEPMDITRREPGPNDVKIEIAYCGVCHSDLHQVRSEWAGTVYPCVPGHEIVGRVVAVGDQVEKYAPGDLVGVGCIVDSCKHCEECEDGLENYCDHMTGTYNSPTPDEPGHTLGGYSQQIVVHERYVLRIRHPQEQLAAVAPLLCAGITTYSPLRHWQAGPGKKVGVVGIGGLGHMGIKLAHAMGAHVVAFTTSEAKREAAKALGADEVVNSRNADEMAAHLKSFDFILNTVAAPHNLDDFTTLLKRDGTMTLVGAPATPHKSPEVFNLIMKRRAIAGSMIGGIPETQEMLDFCAEHGIVADIEMIRADQINEAYERMLRGDVKYRFVIDNRTLTD

Settings: reported; cited from earlier work

Molecule | kcat/Km for butyraldehyde
B1 | 221000 M⁻¹ s⁻¹
B2 | 19800 M⁻¹ s⁻¹
